Laboratory results: PubChem BioAssay AID686943 (Drosophila RNAi Screening Center, 2013)
Test: 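Search across the genome for regulators of signalling from receptor tyrosine kinase to ERK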 (primary screen). Cell system: Drosophila S2R+ haemocyte-like cells expressing YFP-tagged ERK (Rolled). Reagents: long dsRNA against Drosophila genes. Conditions: insulin stimulation versus unstimulated cells; dose and duration not given. Measurement: 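Antibody staining for doubly phosphorylated ERK divided by ERK-YFP signal, as plate z-scores, in insulin-treated and untreated cells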. Scale: replicate 1, z-score of dpERK with insulin: higher = more active ERK per ERK-YFP after insulin.
The screen tested about 23,000 reagents; shown is a random part of those with a known target gene and a result. 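Extra replicates exist only for a retested subset of genes; insulin dose and duration not given; both raised and lowered dpERK matter.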 The numbers tell different reagents against one gene apart. A plus sign joins genes that one reagent is predicted to hit. Further read-outs or replicates are left out here. Not stated in the record: the amount of reagent, the time to read-out.

gene knocked down,dsRNA no.,"replicate 1, z-score of dpERK with insulin"
Afti (Aftiphilin),1,-0.55
Brd7-9 (Bromodomain containing 7/9),1,0.19
"Gmer (GDP-4-keto-6-deoxy-D-mannose 3,5-epimerase/4-reductase)",1,-0.04
CG13698,1,0.21
CG14212,1,0.69
CG7742,1,0.24
Prosbeta5R1 (Proteasome beta5 subunit-related 1),1,2.1
CG33655,1,-0.24
isoQC (iso Glutaminyl cyclase),1,0.4
CG12538,1,0.31
CG34155,1,-0.09
CG5386,1,-0.54
CG13258,1,0.09
Ir56d (Ionotropic receptor 56d),1,0.96
CG6550,1,-0.36
Ubi-p63E (Ubiquitin-63E),1,0.31
obst-B (obstructor-B),1,0.1
Aps (Aps pyrophosphatase),1,1.21
CG7579,1,0.12
CG31301,1,0.09
fj (four-jointed),1,0.28
RpL39 (Ribosomal protein L39),1,-2.63
ms(3)76Cc (male sterile (3) 76Cc),1,1.18
ms(3)76Cc (male sterile (3) 76Cc),2,-0.43
eEF1alpha1 (eukaryotic translation elongation factor 1 alpha 1),1,1.38
Orct2 (Organic cation transporter 2),1,-0.48
Klc (Kinesin light chain),1,-0.83
CanA-14F (Calcineurin A at 14F),1,-1.58
Plap (Phospholipase A2 activator protein),1,-0.11
Pss (Phosphatidylserine synthase),1,0.9
mIF2 (mitochondrial translation initiation factor 2),1,-0.9
cd (cardinal),1,-0.61
rswl (roswell),1,0.02
Hsp70Aa + Hsp70Ab,1,-2.28
CG33191 + Pif1B,1,0.06
CG30279 (retired record),1,0.73
CG15831 (retired record),1,-0.68
sPLA2 (secretory Phospholipase A2),1,1.2
His1:CG33816 + His1:CG33828 + His1:CG33819 + 21 more,1,0.4

Part of the list above, set out differently:
{"gene knocked down":"ms(3)76Cc (male sterile (3) 76Cc)","dsRNA no.":2,"replicate 1, z-score of dpERK with insulin":-0.43}
{"gene knocked down":"eEF1alpha1 (eukaryotic translation elongation factor 1 alpha 1)","dsRNA no.":1,"replicate 1, z-score of dpERK with insulin":1.38}
